This is an account of results in the supplement of paper PMC8426693.

The other results are listed elsewhere or left out.

The subject of one experiment is SARS-CoV-2 5_SL5b+c RNA. Kind of experiment: NMR binding call after quantification (hit when 2 of 3 NMR criteria are met) (binary (1 = binding, 0 = not binding)); higher = binding. The following applies: RNA concentration 10 µM; fragment concentration 200 µM; 293 K.
Turning to `N#Cc1ccc(Cn2cnc3ccccc32)cc1`, the NMR binding call came out at 0.

Turning to `NC(=O)C1CCCn2ccnc21` (centres undefined), the NMR binding call is 0.

On to `CCC(NC)c1ccncc1` (centres undefined), for which the NMR binding call amounted to 0.

With `Cc1c(Cl)cccc1NC(=O)CN.Cl`, the NMR binding call was determined as 0.

With `CC(N)C(=O)Nc1cc(C(F)(F)F)n[nH]1.Cl` (centres undefined), the NMR binding call turned out to be 0.

Compound `Nc1ncncc1-c1ccc(Cl)cc1` had an NMR binding call of 0.

On to `COC(C)c1nc(-c2cnoc2C)cs1` (centres undefined), for which the NMR binding call turned out to be 0.

`O=C(NCCc1ccncc1)c1ccccc1F` displayed an NMR binding call of 0.

In turn, `Cc1nc2ccccc2n1CCC(N)=O` yielded an NMR binding call of 0.

For the compound `CN(C)c1ccc(CNn2cnnc2)cc1`, the NMR binding call was 0.

For the compound `CC(N)c1nc(Cc2ccccc2)no1.Cl` (centres undefined), the NMR binding call was 0.

Compound `COc1ccc(NCc2ccccc2O)cc1` displayed an NMR binding call of 0.

For the compound `Nc1nccc(-c2ccc(Cl)cc2)n1`, the NMR binding call was 1.

On to `CCNc1ccc(C)nn1`, for which the NMR binding call stood at 0.

`CC(=O)NCc1ncc[nH]1` registered an NMR binding call of 0.

`CC(C)Nc1cccnc1` displayed an NMR binding call of 0.

In turn, `FC(F)(F)c1ccc(CN2CCOCC2)cc1` returned an NMR binding call of 0.

Consider `Cc1n[nH]c(C)c1S(=O)(=O)N(C)C`, for which the NMR binding call was 0.

`Cn1cc(Oc2ncncc2Cl)cn1` yielded an NMR binding call of 0.

`Cl.Cl.c1cn(CC2CCCCN2)nn1` (centres undefined) returned an NMR binding call of 0.

`CN(C)c1ccc(C(=O)Nc2ccncc2)cc1` had an NMR binding call of 1.

`O=C(NCCN1CCCC1=O)Nc1ccccc1`: the NMR binding call worked out at 0.

`CN(C)Cc1ccc(C#N)cc1` gave an NMR binding call of 0.

`Cc1cnc(N2CCNCC2)s1.Cl.Cl` displayed an NMR binding call of 0.

For `Cc1cc2ncn(CC(N)=O)c2cc1C`, the NMR binding call turned out to be 0.

Compound `CC(C)(C)C(=O)NCCc1nc2ccccc2[nH]1` yielded an NMR binding call of 0.

In turn, `OCCN1CCOCC1` registered an NMR binding call of 0.

In the case of `OCC1CN(Cc2ccccc2)CCO1` (centres undefined), the NMR binding call was 0.

Consider `COCC1CN(c2ccccn2)CCO1` (centres undefined), for which the NMR binding call was 0.

The compound `COC(=O)Nc1ccc(Cc2ccncc2)cc1` registered an NMR binding call of 0.

As for `CC(C)C(=O)Nc1ccc(N2CCCCC2)cc1`, the NMR binding call turned out to be 0.

`OCc1cn(-c2ccc(Cl)c(Cl)c2)nn1`: the NMR binding call amounted to 1.

As for `CN1CCN(C(=O)CO)CC1`, the NMR binding call was found to be 0.

`O=C(CCCc1ccccc1)N1CCOCC1`: the NMR binding call amounted to 0.

As for `O=C(NCCc1ccncc1)NC1CCCCC1`, the NMR binding call amounted to 0.

Turning to `CC(=O)Nc1ccc(CN2CCOCC2)cc1`, the NMR binding call worked out at 0.

In the next experiment the test system is SARS-CoV-2 5_SL5stem RNA. The description is as above. The settings on record: RNA concentration 10 µM; fragment concentration 200 µM; 293 K.
With `NC(=O)C1CCCn2ccnc21` (centres undefined), the NMR binding call worked out at 0.

Turning to `CCC(NC)c1ccncc1` (centres undefined), the NMR binding call was 0.

On to `Cc1c(Cl)cccc1NC(=O)CN.Cl`, for which the NMR binding call came out at 0.

In turn, `CC(N)C(=O)Nc1cc(C(F)(F)F)n[nH]1.Cl` (centres undefined) showed an NMR binding call of 0.

As for `COC(C)c1nc(-c2cnoc2C)cs1` (centres undefined), the NMR binding call was 0.

In turn, `Cc1nc2ccccc2n1CCC(N)=O` returned an NMR binding call of 0.

In the case of `CN(C)c1ccc(CNn2cnnc2)cc1`, the NMR binding call was determined as 0.

For `CC(N)c1nc(Cc2ccccc2)no1.Cl` (centres undefined), the NMR binding call was found to be 0.

With `COc1ccc(NCc2ccccc2O)cc1`, the NMR binding call turned out to be 0.

On to `Nc1nccc(-c2ccc(Cl)cc2)n1`, for which the NMR binding call stood at 0.

As to `CC(=O)NCc1ncc[nH]1`, the NMR binding call came to 0.

Take `c1ccc(SCCN2CCOCC2)cc1`: the NMR binding call was 0.

For the compound `CC(C)Nc1cccnc1`, the NMR binding call was 0.

Take `FC(F)(F)c1ccc(CN2CCOCC2)cc1`: the NMR binding call was 0.

As to `Cc1n[nH]c(C)c1S(=O)(=O)N(C)C`, the NMR binding call stood at 0.

On to `Cn1cc(Oc2ncncc2Cl)cn1`, for which the NMR binding call is 0.

`Cl.Cl.c1cn(CC2CCCCN2)nn1` (centres undefined): the NMR binding call was found to be 0.

`CN(C)c1ccc(C(=O)Nc2ccncc2)cc1` registered an NMR binding call of 0.

In turn, `COC(=O)c1ccccc1NC(=O)N1CCCC1` yielded an NMR binding call of 0.

The compound `O=C(NCCN1CCCC1=O)Nc1ccccc1` yielded an NMR binding call of 0.

With `CN(C)Cc1ccc(C#N)cc1`, the NMR binding call was determined as 0.

In the case of `Cc1cnc(N2CCNCC2)s1.Cl.Cl`, the NMR binding call turned out to be 0.

`Cc1cc2ncn(CC(N)=O)c2cc1C` returned an NMR binding call of 0.

With `CC(C)(C)C(=O)NCCc1nc2ccccc2[nH]1`, the NMR binding call came to 0.

In the case of `OCCN1CCOCC1`, the NMR binding call amounted to 0.

In turn, `OCC1CN(Cc2ccccc2)CCO1` (centres undefined) gave an NMR binding call of 0.

For `COCC1CN(c2ccccn2)CCO1` (centres undefined), the NMR binding call was 0.

`CC(C)C(=O)Nc1ccc(N2CCCCC2)cc1` had an NMR binding call of 0.

`OCc1cn(-c2ccc(Cl)c(Cl)c2)nn1` had an NMR binding call of 1.

Turning to `CN1CCN(C(=O)CO)CC1`, the NMR binding call was determined as 0.

As for `O=C(CCCc1ccccc1)N1CCOCC1`, the NMR binding call amounted to 0.

On to `CC(=O)Nc1ccc(CN2CCOCC2)cc1`, for which the NMR binding call came to 0.

Another experiment deals with SARS-CoV-2 5_SL6 RNA. Described as above. The following applies: RNA concentration 10 µM; fragment concentration 200 µM; 293 K.
As for `NC(=O)C1CCCn2ccnc21` (centres undefined), the NMR binding call was 0.

In the case of `CCC(NC)c1ccncc1` (centres undefined), the NMR binding call came to 0.

Compound `Cc1c(Cl)cccc1NC(=O)CN.Cl` gave an NMR binding call of 0.

For the compound `CC(N)C(=O)Nc1cc(C(F)(F)F)n[nH]1.Cl` (centres undefined), the NMR binding call was 0.

As to `Nc1ncncc1-c1ccc(Cl)cc1`, the NMR binding call was determined as 0.

In the case of `COC(C)c1nc(-c2cnoc2C)cs1` (centres undefined), the NMR binding call was 0.

Compound `O=C(NCCc1ccncc1)c1ccccc1F` registered an NMR binding call of 0.

`Cc1nc2ccccc2n1CCC(N)=O` registered an NMR binding call of 0.

In the case of `CN(C)c1ccc(CNn2cnnc2)cc1`, the NMR binding call was 0.

`CC(N)c1nc(Cc2ccccc2)no1.Cl` (centres undefined) came in with an NMR binding call of 0.

`Nc1nccc(-c2ccc(Cl)cc2)n1` registered an NMR binding call of 0.

The compound `CCNc1ccc(C)nn1` yielded an NMR binding call of 0.

`CC(=O)NCc1ncc[nH]1` showed an NMR binding call of 0.

Take `c1ccc(SCCN2CCOCC2)cc1`: the NMR binding call was found to be 0.

With `CC(C)Nc1cccnc1`, the NMR binding call is 0.

`Cc1n[nH]c(C)c1S(=O)(=O)N(C)C` came in with an NMR binding call of 0.

Consider `Cn1cc(Oc2ncncc2Cl)cn1`, for which the NMR binding call came to 0.

On to `Cl.Cl.c1cn(CC2CCCCN2)nn1` (centres undefined), for which the NMR binding call was found to be 0.

Turning to `COC(=O)c1ccccc1NC(=O)N1CCCC1`, the NMR binding call was determined as 0.

Take `O=C(NCCN1CCCC1=O)Nc1ccccc1`: the NMR binding call came to 0.

Compound `CN(C)Cc1ccc(C#N)cc1` showed an NMR binding call of 0.

Turning to `Cc1cnc(N2CCNCC2)s1.Cl.Cl`, the NMR binding call turned out to be 0.

Regarding `Cc1cc2ncn(CC(N)=O)c2cc1C`, the NMR binding call worked out at 0.

For `OCCN1CCOCC1`, the NMR binding call is 0.

For `OCC1CN(Cc2ccccc2)CCO1` (centres undefined), the NMR binding call worked out at 0.

`COCC1CN(c2ccccn2)CCO1` (centres undefined): the NMR binding call stood at 0.

For the compound `CC(C)C(=O)Nc1ccc(N2CCCCC2)cc1`, the NMR binding call was found to be 0.

With `OCc1cn(-c2ccc(Cl)c(Cl)c2)nn1`, the NMR binding call came to 1.

As to `CN1CCN(C(=O)CO)CC1`, the NMR binding call was 0.

Regarding `O=C(CCCc1ccccc1)N1CCOCC1`, the NMR binding call was 0.

For `CC(=O)Nc1ccc(CN2CCOCC2)cc1`, the NMR binding call was 0.
